Laboratory results reported in PMC4256409, “Role of Phenylalanine and Valine^10 Residues in the Antimicrobial Activity and Cytotoxicity of Piscidin-1” (PLoS ONE, 2014).

Key:
[1] = Tryptophan fluorescence with SUVs; settings: for Blue shift of tryptophan emission maximum (in parentheses): EYPC/EYPG (7∶3, w/w) SUVs versus Tris-HCl buffer; for Tryptophan emission maximum: EYPC/EYPG (7∶3, w/w) SUVs, 1 mM lipid, 5 µM peptide, pH 7.4
[2] = Tryptophan fluorescence with SUVs; settings: for Blue shift of tryptophan emission maximum (in parentheses): EYPC/CH (10∶1, w/w) SUVs versus Tris-HCl buffer; for Tryptophan emission maximum: EYPC/CH (10∶1, w/w) SUVs, 1 mM lipid, 5 µM peptide, pH 7.4

For Melittin [reference compound], the “Blue shift of tryptophan emission maximum (in parentheses)” value (“Blue shift” below) [1] was −18, the Tryptophan emission maximum [1] was 332 and the “Blue shift” value [2] was −18. For the same substance, the Tryptophan emission maximum [2] was 332.

With “WFHHIFRGIVHVGKTIHRLVTG [Pis-F1W, Pis-1 analog, Phe1 replaced with Trp]” the “Blue shift” value [1] was −12, the Tryptophan emission maximum [1] was 340 and the “Blue shift” value [2] was −14. The Tryptophan emission maximum [2] was 338.

In the case of “FWHHIFRGIVHVGKTIHRLVTG [Pis-F2W, Pis-1 analog, Phe2 replaced with Trp]”, the “Blue shift” value [1] is reported as −26, the Tryptophan emission maximum [1] is reported as 326 and the “Blue shift” value [2] is reported as −22. It also gave a Tryptophan emission maximum [2] of 330.

With “FFHHIWRGIVHVGKTIHRLVTG [Pis-F6W, Pis-1 analog, Phe6 replaced with Trp]” the “Blue shift” value [1] was −24, the Tryptophan emission maximum [1] was 332 and the “Blue shift” value [2] was −16. For the same substance, the Tryptophan emission maximum [2] was 334.
